Measured values: patent US20170369589A1 (INBIOMOTION S L, published 2017)
These are yes or no findings as the source states them, for the method shown. Some entries that bind do so weakly or less than the wild type. No end group written: not given here.

Chains of the proteins cited; added tags and fusions are not shown.
UniProt O75444: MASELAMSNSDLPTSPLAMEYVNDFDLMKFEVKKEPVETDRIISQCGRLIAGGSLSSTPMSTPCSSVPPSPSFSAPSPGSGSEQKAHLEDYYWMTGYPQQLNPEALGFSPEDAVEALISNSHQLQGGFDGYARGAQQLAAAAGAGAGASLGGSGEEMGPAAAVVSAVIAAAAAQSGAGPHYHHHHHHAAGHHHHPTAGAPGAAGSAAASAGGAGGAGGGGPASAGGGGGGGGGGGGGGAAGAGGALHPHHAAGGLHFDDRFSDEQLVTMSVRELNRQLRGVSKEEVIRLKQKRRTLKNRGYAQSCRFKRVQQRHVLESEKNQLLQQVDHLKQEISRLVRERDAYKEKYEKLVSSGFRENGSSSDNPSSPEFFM

Tests used:
[1] = target: endogenous c-MAF isoforms (including post translational modified proteins) and its degradation forms (human) (UniProt O75444); experiment: western blot of whole cell lysates, antibody at 1:50 dilution
[2] = target: recombinantly expressed short human c-MAF isoform (human) (UniProt O75444); experiment: as above
[3] = target: endogenous c-MAF isoforms (including post translational modified proteins) and its degradation forms (human) (UniProt O75444); experiment: immunohistochemistry on primary breast cancer tissue sections
[4] = target: recombinantly expressed short human c-MAF isoform (human) (UniProt O75444); experiment: western blot of whole cell lysates, antibody at 1:50, tubulin as loading control

Measured: binding

B1: INB-1-11-8 c-MAF specific monoclonal antibody (rabbit) (antibody, V domains shown)
VH: QSLEESGGRLVTPGTPLTLTCTASGFSLNNYPMTWVRQAPGKGLDYIGVINNSGETAYATWAKRRFTISRTSTTLYLKIASPTIEDTATYFCARGGPVSSDMWGPGTLVIVSS
VL: AQVLTQTASPVSAVVGGTVTINCQSSQSVYRGDWLAWYQQRPGQPPKLLIYGASTLASGVPSRFKGSGSGTHFTLTISDLDCDDAATYYCAGGFSGHIYDFGGGTEVVVKG
notes: Rabbit monoclonal antibody; also called Clone ID11-8; antibody INB-1-11-8
binds: [1] | [2] | [3] | [4]
